The values below come from patent US20250136696A1.

Residue numbers refer to the chain shown, from its start. These are yes or no findings as the source states them, for the method shown. Binding can be weak; no strength is given.

To fix the notation:
B1: PR003265 (antibody, human IgG1, kappa, V domains shown)
VH: QVQLVESGGGVVQPGRSLRLSCAASGFTFSTYGLHWVRQAPGKGLEWVAVIWYDESNEYYADSVKGRFTISRDNSKNTLYLQMNSLRAEDTALYYCARLAHDYGGTYFDYWGQGTLVTVSS
VL: EIVMTQSPAILSVSPGERATLSCRASQSISYNLAWYQQKPGQAPRLLIYGASIRATGIPARFSGSGSGTDFTLTISSLQSEDFAVYYCQQYNNWPPWTFGQGTKVEIKR
B2: PR003260 (antibody, human IgG1, kappa, V domains shown)
VH: QVQLVESGGGVVQPGRSLRLPCAASGFTFSRYGMHWVRQAPGKGLEWVADIWYDGSKKYYADSVKGRFTISRDNSKNTLYLQMNSLRAEDTAVYFCTRDGGYSYGPFDYWGQGTLVTVSS
VL: EIVMTQSPATLSVSPGERATLSCRASQSVSSNLAWYQQKPGQAPRLLIYYASTRAPGIPARFSGSESGTEFTLTISSLQSEDFAVYYCQQYNIWPYTFGQGTKLEIKR
B3: PR003262 (antibody, human IgG1, kappa, V domains shown)
VH: B2 VH with P21S, M34I, D50V, D54N, S56R, K57N, A61V, F95Y, T97A
VL: B2 VL with V29F, S31N, Y50G, P56T, E66G, Q89H, Y96L, Q100G, L104V
B4: PR003263 (antibody, human IgG1, kappa, V domains shown)
VH: QVQLVESGGGVVQPGRSLRLSCAASGFTFSYYGLNWVRQAPGKGLEWVAVIWFDGTNKYYADSVKGRFTISRDDSKNTLYLQMNSLRAEDTAVYYCARGYGSGSYYNYVMDAWGQGASVTVSS
VL: B2 VL with Y50G, R54G, P56T, E66G, E70D, N92Y, I93K, Y96L, Q100G, L104V
B5: PR003252 (antibody, human IgG1, kappa, V domains shown)
VH: QVQLVESGGGVVQPGRSLRLSCAASGFTFSNYAMHWVRQVPGKGLEWVALIWYDGSEKYYADSVKGRFTISRDDSKNTLFLQMSSLRAEDTAVYSCVREYSSGWGYFDYWGQGTQVTVSS
VL: DIQMTQSPSTLSASVGDRVTITCRASQSISSWLAWYQQKPGKAPKLLIYKASSLKSGVPSRFSGSGSGTEFTLTISSLQPDDFATYYCLQYNSYYTFGQGTKLEIKR

This assay deals with cynomolgus monkey B7-H7 on the cell surface (cynomolgus monkey). The experiment in a line: flow cytometry on cells. (In general: In flow cytometry, cells or beads pass a laser one at a time.)
As to B1, the binding entry is “binds”.

With B2, the binding result was “binds”.

In the case of B3, the binding result was “binds”. With B4 the entry was “binds”; with B5, “binds”.
